These results are taken from patent US20240342207, “MODIFIED NUCLEIC ACID COMPOSITIONS AND ASSOCIATED METHODS FOR TREATMENT OF PHENYLKETONURIA” (BOARD OF REGENTS, THE UNIVERSITY OF TEXAS SYSTEM, published 2024).

Data set [1] has as its target T1, PAH, endogenous in Pair-/- mouse hepatocytes (Mus musculus) (UniProt P16331).
T1 sequence (looked up, limits assumed): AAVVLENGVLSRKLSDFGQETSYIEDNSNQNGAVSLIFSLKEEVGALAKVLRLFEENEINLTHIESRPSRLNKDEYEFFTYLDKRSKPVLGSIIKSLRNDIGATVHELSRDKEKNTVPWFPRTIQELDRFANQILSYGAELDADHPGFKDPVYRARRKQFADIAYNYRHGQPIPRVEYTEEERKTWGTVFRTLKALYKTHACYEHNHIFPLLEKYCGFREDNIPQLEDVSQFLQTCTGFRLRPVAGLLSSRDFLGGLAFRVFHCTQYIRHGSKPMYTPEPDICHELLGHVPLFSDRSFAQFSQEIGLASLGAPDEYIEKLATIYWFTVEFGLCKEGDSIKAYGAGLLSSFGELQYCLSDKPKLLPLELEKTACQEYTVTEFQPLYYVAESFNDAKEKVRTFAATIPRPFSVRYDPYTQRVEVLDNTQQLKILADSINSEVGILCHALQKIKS
Briefly: pull-down. The settings on record: MS2-TRAP and rescue CLIP in Pair-/- hepatocytes; protein in cells.

Data set [2] deals with T2, PAH, endogenous mouse liver (Mus musculus) (UniProt P16331).
T2 sequence (looked up, limits assumed): T1 sequence (looked up, limits assumed)
As to the kind of experiment: pull-down. The settings on record: biotinylated sense Pair, mouse liver lysate, LC-MS; CLIP maps nt 460-496; protein in an extract.

In data set [3] the target is T3, PAH (phenylalanine hydroxylase), wild type (Homo sapiens) (UniProt P00439).
T3 sequence (looked up, limits assumed): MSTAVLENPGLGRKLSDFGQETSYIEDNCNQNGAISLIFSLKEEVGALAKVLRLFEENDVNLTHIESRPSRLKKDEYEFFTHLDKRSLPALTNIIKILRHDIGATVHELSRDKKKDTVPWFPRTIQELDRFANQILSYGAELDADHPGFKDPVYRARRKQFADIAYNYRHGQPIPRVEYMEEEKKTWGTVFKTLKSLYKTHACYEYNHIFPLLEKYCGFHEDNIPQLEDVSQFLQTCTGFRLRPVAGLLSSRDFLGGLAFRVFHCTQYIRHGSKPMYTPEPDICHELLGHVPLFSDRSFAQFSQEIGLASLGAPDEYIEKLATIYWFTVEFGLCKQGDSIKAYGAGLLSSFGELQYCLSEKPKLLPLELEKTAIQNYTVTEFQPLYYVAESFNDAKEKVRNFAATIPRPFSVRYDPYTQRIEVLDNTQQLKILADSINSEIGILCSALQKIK
Briefly: activity assay. The settings on record: purified recombinant protein.

Another data set has as its target T4, PAH R408W (Homo sapiens) (UniProt P00439).
T4 sequence (looked up): T3 sequence (looked up, limits assumed) with R408W
As to the kind of experiment: activity assay. The conditions noted are these: mimic enhances kcat of R408W; purified recombinant protein; protein details: His-tag, E. coli.

The target in data set [4] is T5, PAH TH63-64PN T63P,H64N (Homo sapiens) (UniProt P00439).
T5 sequence (looked up): T3 sequence (looked up, limits assumed) with T63P, H64N
As to the kind of experiment: activity assay. The settings on record: no enhancement of kcat; purified recombinant protein; protein details: His-tag, E. coli.

Data set [5] has as its target T6, PAH, endogenous human liver (Homo sapiens) (UniProt P00439).
T6 sequence (looked up, limits assumed): T3 sequence (looked up, limits assumed)
As to the kind of experiment: binding assay. The conditions noted are these: CLIP (nt 183-216) and RIP in human liver; protein in an extract.

Data set [6] concerns the target T3, PAH (phenylalanine hydroxylase), wild type (Homo sapiens). As to the kind of experiment: binding assay. The settings on record: DIG-tagged HULC dot blot; affinity similar to mimic; purified recombinant protein.

Substitutions are numbered along the chain they refer to. For part of these data: Negatives hold for the conditions tested. Protein sequences can lack the tags named with them. For part of these data: The exact form of at least one protein or probe is not confirmed. For part of these data: Results from cells or extracts need not show a direct contact.

Regarding “GUGUCAUGCAAGAAGGAGGCGGCGGCGGCGGCCGGAGCUGGAGGGGGAGGAGGGGAGGAACCUGAUCCUCGGUAGCGAAGGGCUGGAGGCAAACACCGAGCUCCCCCUGAGCCGCCUGGGAGCAGGGAGGGUUCUGCUACCCUGAGGGGCCCUCCCCGCGGGGCAGAGGGGUUUCCUCAGCAGUGCCCCGGAGCAGGGACCGCGCCAGCCAGCAGAAACAGCUAGUUGUUGUCUGCAGUGAAGAAUAAUUGGAAGCAUGGUGCCUGUUUCUUUUCCUGUGGGAGGAAGUCACAGCAUCUACUUCUGAAUCUGUGCUUGCCUUGAGGAAAAACGGCAUGGCACAGGAAUGUGGACGCUUUCAACCAGAGGAUUCUGUACGACGGUGUCGGCACACAAGGAGUGUUCCACUGACUGACCUCUUUUUGUUUUCAAAUGAAGAGGAGCCAAGAAUAGGACAGCUUGGGAAGGUGAGCUGCGUAUAGCUCGUCAGGCUGAGCUCAUCCUCGUCUACGGCCAAACGUUGGUUUCUCAUUUCUAGAAGAUGAAAGAUGUGAUGACUCAGGAAAAACUUGCUGCUCGAGAUGUGAGUCUUCAGAUGUUCCUGCCGCCAUAUCUGACAGCUGCUGCCAAGAUUCCCUGGUGGGAUGGACUCUUAUACCUCAACAACCAGAAGCCCAAGUAAACUCUUCUAUAAAUUGAAUGACUCAUGCUUAAAAAAAAAAACAAAAAACAAA [Pair full length (NR_040259.1)]”, the binding result in data set [1] and in data set [2] was “binds” in each case.
Consider “CAAAAUGCAUGUGUAUCUUUG [HULC 181-201 mutant mimic (A191G)]”, for which the functional effect entry in data set [3] (mutant mimic does not enhance activity, variant of HULC 181-201 mimic) was “not active”.
On to “CAAAAUGCAUAUGUAUCUUUG [HULC 181-201 mimic]”, for which the functional effect entry is listed as “active” with PAH R408W (Homo sapiens); “not active” in data set [4]; “active” in data set [3] (mimic increases kcat and Phe to Tyr conversion).
On to “AUGGGGGUGGAACUCAUGAUGGAAUUGGAGCCUUUACAAGGGAAUGAAGAGACAAGAGCUCUCUUUAUGCCACGUGAGGAUACAGCAAGGCCCCAAUCUGCAAGCCAGGAAGAGUCGUCACGAGAACCAGACCAUGCAGGAACUCUGAUCGUGGACAUUUCAACCUCCAGAACUGUGAUCCAAAAUGCAUAUGUAUCUUUGGAAGAAACUCUGAAGUAAAGGCCGGAAUAUUCUUUGUUUAAAACAUUAAAAACAAAACAGACCAAAGCAUCAAGCAAGAAGUUUCCUGGCAAUAAACUAAGCACAGCAUUAUUUUUUAAGGAACACAAAUUAAGUGUUCAACCUGUGGCAAAUUUGUACUUUCUCCCUGAAUUAUGUUGUUAUCAAAGAAAAAAAUUGGGAAGCAUGGCAAAAUAUCAUCAAAACUGAAACUAGAAUUAAACAAAACUAAAUUAAAAUGAAAUAAAAUGAUGUCCAUUCUUAAAAAAAAAAAAAAAAAA [HULC full length (NR_004855.2)]”, for which the binding result in data set [1], in data set [5] and in data set [6] was “binds” throughout.
